No constants are given. Whether binding was seen depends on the method and setting. For some assays here: Binding calls can cover weak binding; strength is not graded here. For some assays here: Sequences can lack the tags named with a protein. For some assays here: Binding seen in cells or lysates may run through a third protein.

Protein sequences, listed by entry. Tags and fused reporters are not part of them. Lines headed by an entry give the natural chain unless they say otherwise; changes in a name come on top.
UniProt Q84V03: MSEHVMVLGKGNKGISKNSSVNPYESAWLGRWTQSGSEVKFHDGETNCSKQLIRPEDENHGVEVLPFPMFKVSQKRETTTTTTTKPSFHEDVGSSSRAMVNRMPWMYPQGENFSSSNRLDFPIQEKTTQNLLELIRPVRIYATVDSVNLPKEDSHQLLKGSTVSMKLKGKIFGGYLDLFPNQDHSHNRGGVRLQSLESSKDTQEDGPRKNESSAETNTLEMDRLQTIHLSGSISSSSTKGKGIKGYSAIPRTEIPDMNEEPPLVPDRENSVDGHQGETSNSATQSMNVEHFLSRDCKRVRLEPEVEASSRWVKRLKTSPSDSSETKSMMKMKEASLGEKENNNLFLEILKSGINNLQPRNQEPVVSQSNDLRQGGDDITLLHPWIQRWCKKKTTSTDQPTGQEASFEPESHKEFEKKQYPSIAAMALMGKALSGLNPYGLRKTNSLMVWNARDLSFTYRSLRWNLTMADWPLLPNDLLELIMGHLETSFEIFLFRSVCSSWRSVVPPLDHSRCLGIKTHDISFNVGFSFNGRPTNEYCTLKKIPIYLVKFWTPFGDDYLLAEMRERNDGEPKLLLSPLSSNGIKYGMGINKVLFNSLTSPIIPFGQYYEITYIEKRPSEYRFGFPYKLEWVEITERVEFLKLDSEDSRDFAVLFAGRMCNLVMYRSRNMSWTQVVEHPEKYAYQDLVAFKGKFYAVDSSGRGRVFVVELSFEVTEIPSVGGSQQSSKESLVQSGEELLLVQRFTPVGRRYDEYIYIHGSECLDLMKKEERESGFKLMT
UniProt P14713: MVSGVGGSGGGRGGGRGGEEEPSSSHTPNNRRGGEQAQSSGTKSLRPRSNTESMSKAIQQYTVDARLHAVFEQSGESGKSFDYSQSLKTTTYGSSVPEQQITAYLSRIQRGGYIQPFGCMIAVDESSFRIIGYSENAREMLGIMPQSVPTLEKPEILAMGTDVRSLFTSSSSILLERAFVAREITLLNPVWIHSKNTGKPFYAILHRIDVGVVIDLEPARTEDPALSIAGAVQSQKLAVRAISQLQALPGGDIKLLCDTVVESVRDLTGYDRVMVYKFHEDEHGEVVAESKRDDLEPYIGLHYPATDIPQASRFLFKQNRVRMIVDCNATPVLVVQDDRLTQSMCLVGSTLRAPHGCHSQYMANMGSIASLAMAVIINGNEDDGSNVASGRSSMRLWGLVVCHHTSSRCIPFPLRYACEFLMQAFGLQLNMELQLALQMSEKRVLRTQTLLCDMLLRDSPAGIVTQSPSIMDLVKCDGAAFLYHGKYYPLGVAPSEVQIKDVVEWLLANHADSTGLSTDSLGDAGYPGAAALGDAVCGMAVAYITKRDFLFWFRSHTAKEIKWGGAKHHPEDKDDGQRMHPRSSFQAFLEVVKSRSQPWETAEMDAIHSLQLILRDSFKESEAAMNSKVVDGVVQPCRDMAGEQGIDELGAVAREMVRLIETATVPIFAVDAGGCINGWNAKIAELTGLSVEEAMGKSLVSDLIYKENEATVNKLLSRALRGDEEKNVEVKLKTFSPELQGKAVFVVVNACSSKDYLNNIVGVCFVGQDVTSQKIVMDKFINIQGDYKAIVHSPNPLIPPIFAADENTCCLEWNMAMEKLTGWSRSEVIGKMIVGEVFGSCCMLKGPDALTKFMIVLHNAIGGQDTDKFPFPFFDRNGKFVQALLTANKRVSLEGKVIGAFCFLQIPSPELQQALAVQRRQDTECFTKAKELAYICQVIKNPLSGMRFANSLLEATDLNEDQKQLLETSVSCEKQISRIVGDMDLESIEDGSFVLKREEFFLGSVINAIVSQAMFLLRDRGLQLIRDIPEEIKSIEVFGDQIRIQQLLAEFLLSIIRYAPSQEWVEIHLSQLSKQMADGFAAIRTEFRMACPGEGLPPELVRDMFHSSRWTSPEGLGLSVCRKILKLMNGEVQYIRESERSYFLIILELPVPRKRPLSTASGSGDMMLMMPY

Assay [1] addresses PCH1 fused to GAL4 DNA binding domain (A. thaliana) (UniProt Q84V03). Put plainly: two-hybrid; Matchmaker GAL4 system; PCH1 fused to DBD, preys fused to AD; growth on -Leu -Trp -His with 2 mM 3AT, 4 days at 30°C.
For assay [2], the target named is Recombinant His6-PCH1-His6-FLAG3 (A. thaliana) (UniProt Q84V03). The assay can be described thus: pull-down; purified His6-PCH1-His6-FLAG3 bait with in vitro translated phyB-HA plus 20 µM PΦB under red light (Pfr, 50 µmol m^-2 s^-1), 12°C; TALON beads, anti-HA blot; only the target purified.
The target is the same in assay [3]. Put plainly: pull-down; purified His6-PCH1-His6-FLAG3 bait with in vitro translated phyB-HA plus 20 µM PΦB under far red light (Pr, 25 µmol m^-2 s^-1), 12°C; TALON beads, anti-HA blot; only the target purified.
Assay [4] concerns the target PCH1-His6-FLAG3, transiently expressed in tobacco (Nicotiana benthamiana) leaves (A. thaliana) (UniProt Q84V03). Put plainly: co-IP; transient co-expression in N. benthamiana leaves; anti-FLAG IP, westerns with anti-FLAG, phyB or GFP antibodies.
Assay [5] deals with Recombinant His6-PCH1-His6-FLAG3 (A. thaliana) (UniProt Q84V03). Put plainly: pull-down; purified His6-PCH1-His6-FLAG3 bait with in vitro translated phyB-HA apoprotein (no PΦB), dark, 12°C; TALON beads, anti-HA blot; only the target purified.
The target in assay [6] is PCH1 fused to GAL4 DNA binding domain (A. thaliana), Q84V03. Put plainly: two-hybrid; Matchmaker GAL4 system; PCH1 fused to DBD, preys fused to AD; growth on -Leu -Trp -His with 2 mM 3AT, 4 days at 30°C. Particulars: remark: other sources report otherwise.

With “phyB-Ct (amino acids 640-1173) fused to GAL4 activating domain (from UniProt P14713 640-1172) (domain or fragment)”, in assay [1], the binding entry is listed as “binds”.

On to “phyB-HA holoprotein (mixed with the chromophore phytochromobilin, PΦB) (from UniProt P14713 1-1172)”, for which the binding entry in assay [2] is recorded as “binds”; in assay [3] it was “binds weakly”.

For “phyB-GFP fusion protein, transiently expressed in tobacco (from UniProt P14713 1-1172)”, the binding entry in assay [4] is recorded as “binds”.

Consider “phyB-HA apoprotein (no PΦB) (from UniProt P14713 1-1172)”, for which the binding result in assay [5] is recorded as “binds weakly”.

B1: LUX-Nt (amino acids 1-143) fused to GAL4 activating domain (domain or fragment, UniProt Q9SNB4 1-143)
chain: MGEEVQMSDYDVSGDGDRVSEWEMGLPSDEDLASLSYSLIPPNLAMAFSITPERSRTIQDVNRASETTLSSLRGGSSGPNTSSSNNNVEEEDRVGSSSPGSDSKKQKTSNGDGDDGGGVDPDSAMAAEEGDSGTEDLSGKTLK
In the case of B1, the binding entry in assay [1] was “no binding”.

B2: phyE-Ct (amino acids 583-1113) fused to GAL4 activating domain (domain or fragment, UniProt P42498 583-1112)
chain: NGVARDANELTSFVCEMVRVIETATAPIFGVDSSGCINGWNKKTAEMTGLLASEAMGKSLADEIVQEESRAALESLLCKALQGEEEKSVMLKLRKFGQNNHPDYSSDVCVLVNSCTSRDYTENIIGVCFVGQDITSEKAITDRFIRLQGDYKTIVQSLNPLIPPIFASDENACCSEWNAAMEKLTGWSKHEVIGKMLPGEVFGVFCKVKCQDSLTKFLISLYQGIAGDNVPESSLVEFFNKEGKYIEASLTANKSTNIEGKVIRCFFFLQIINKESGLSCPELKESAQSLNELTYVRQEIKNPLNGIRFAHKLLESSEISASQRQFLETSDACEKQITTIIESTDLKSIEEGKLQLETEEFRLENILDTIISQVMIILRERNSQLRVEVAEEIKTLPLNGDRVKLQLILADLLRNIVNHAPFPNSWVGISISPGQELSRDNGRYIHLQFRMIHPGKGLPSEMLSDMFETRDGWVTPDGLGLKLSRKLLEQMNGRVSYVREDERCFFQVDLQVKTMLGVESRGTEGSSSIK
Turning to B2, the binding entry in assay [1] was “binds”.

B3: LUX-Ct (amino acids 144-324) fused to GAL4 activating domain (domain or fragment, UniProt Q9SNB4 144-323)
chain: RPRLVWTPQLHKRFVDVVAHLGIKNAVPKTIMQLMNVEGLTRENVASHLQKYRLYLKRMQGLTNEGPSASDKLFSSTPVPPQSFQDIGGGGGSSGNVGVPIPGAYGTQQMMQMPVYAHHMGMQGYHHQNHNHDPYHQNHRHHHGAGGNGAFESNPYMMQQNKFGSMASYPSVGGGSANEN
As to B3, the binding entry in assay [1] is on record as “no binding”.

B4: phyA-Ct (amino acids 606-1123) fused to GAL4 activating domain (domain or fragment, UniProt P14712 606-1122)
chain: DLKIDGIQELEAVTSEMVRLIETATVPILAVDSDGLVNGWNTKIAELTGLSVDEAIGKHFLTLVEDSSVEIVKRMLENALEGTEEQNVQFEIKTHLSRADAGPISLVVNACASRDLHENVVGVCFVAHDLTGQKTVMDKFTRIEGDYKAIIQNPNPLIPPIFGTDEFGWCTEWNPAMSKLTGLKREEVIDKMLLGEVFGTQKSCCRLKNQEAFVNLGIVLNNAVTSQDPEKVSFAFFTRGGKYVECLLCVSKKLDREGVVTGVFCFLQLASHELQQALHVQRLAERTAVKRLKALAYIKRQIRNPLSGIMFTRKMIEGTELGPEQRRILQTSALCQKQLSKILDDSDLESIIEGCLDLEMKEFTLNEVLTASTSQVMMKSNGKSVRITNETGEEVMSDTLYGDSIRLQQVLADFMLMAVNFTPSGGQLTVSASLRKDQLGRSVHLANLEIRLTHTGAGIPEFLLNQMFGTEEDVSEEGLSLMVSRKLVKLMNGDVQYLRQAGKSSFIITAELAAANK
On to B4, for which, in assay [1], the binding result is listed as “no binding”.

B5: COP1 fused to GAL4 activating domain, P43254 1-675 (protein)
chain: MEEISTDPVVPAVKPDPRTSSVGEGANRHENDDGGSGGSEIGAPDLDKDLLCPICMQIIKDAFLTACGHSFCYMCIITHLRNKSDCPCCSQHLTNNQLYPNFLLDKLLKKTSARHVSKTASPLDQFREALQRGCDVSIKEVDNLLTLLAERKRKMEQEEAERNMQILLDFLHCLRKQKVDELNEVQTDLQYIKEDINAVERHRIDLYRARDRYSVKLRMLGDDPSTRNAWPHEKNQIGFNSNSLSIRGGNFVGNYQNKKVEGKAQGSSHGLPKKDALSGSDSQSLNQSTVSMARKKRIHAQFNDLQECYLQKRRQLADQPNSKQENDKSVVRREGYSNGLADFQSVLTTFTRYSRLRVIAEIRHGDIFHSANIVSSIEFDRDDELFATAGVSRCIKVFDFSSVVNEPADMQCPIVEMSTRSKLSCLSWNKHEKNHIASSDYEGIVTVWDVTTRQSLMEYEEHEKRAWSVDFSRTEPSMLVSGSDDCKVKVWCTRQEASVINIDMKANICCVKYNPGSSNYIAVGSADHHIHYYDLRNISQPLHVFSGHKKAVSYVKFLSNNELASASTDSTLRLWDVKDNLPVRTFRGHTNEKNFVGLTVNSEYLACGSETNEVYVYHKEITRPVTSHRFGSPDMDDAEEEAGSYFISAVCWKSDSPTMLTANSQGTIKVLVLAA
On to B5, for which, in assay [6], the binding entry is “no binding”.

B6: phyC-Ct (amino acids 592-1112) fused to GAL4 activating domain (domain or fragment, UniProt P14714 592-1111)
chain: DNRVQKVDELCVIVNEMVRLIDTAAVPIFAVDASGVINGWNSKAAEVTGLAVEQAIGKPVSDLVEDDSVETVKNMLALALEGSEERGAEIRIRAFGPKRKSSPVELVVNTCCSRDMTNNVLGVCFIGQDVTGQKTLTENYSRVKGDYARIMWSPSTLIPPIFITNENGVCSEWNNAMQKLSGIKREEVVNKILLGEVFTTDDYGCCLKDHDTLTKLRIGFNAVISGQKNIEKLLFGFYHRDGSFIEALLSANKRTDIEGKVTGVLCFLQVPSPELQYALQVQQISEHAIACALNKLAYLRHEVKDPEKAISFLQDLLHSSGLSEDQKRLLRTSVLCREQLAKVISDSDIEGIEEGYVELDCSEFGLQESLEAVVKQVMELSIERKVQISCDYPQEVSSMRLYGDNLRLQQILSETLLSSIRFTPALRGLCVSFKVIARIEAIGKRMKRVELEFRIIHPAPGLPEDLVREMFQPLRKGTSREGLGLHITQKLVKLMERGTLRYLRESEMSAFVILTEFPLI
As to B6, the binding entry in assay [1] is on record as “no binding”.

B7: ELF3 fused to GAL4 activating domain, O82804 1-695 (protein)
chain: MKRGKDEEKILEPMFPRLHVNDADKGGPRAPPRNKMALYEQLSIPSQRFGDHGTMNSRSNNTSTLVHPGPSSQPCGVERNLSVQHLDSSAANQATEKFVSQMSFMENVRSSAQHDQRKMVREEEDFAVPVYINSRRSQSHGRTKSGIEKEKHTPMVAPSSHHSIRFQEVNQTGSKQNVCLATCSKPEVRDQVKANARSGGFVISLDVSVTEEIDLEKSASSHDRVNDYNASLRQESRNRLYRDGGKTRLKDTDNGAESHLATENHSQEGHGSPEDIDNDREYSKSRACASLQQINEEASDDVSDDSMVDSISSIDVSPDDVVGILGQKRFWRARKAIANQQRVFAVQLFELHRLIKVQKLIAASPDLLLDEISFLGKVSAKSYPVKKLLPSEFLVKPPLPHVVVKQRGDSEKTDQHKMESSAENVVGRLSNQGHHQQSNYMPFANNPPASPAPNGYCFPPQPPPSGNHQQWLIPVMSPSEGLIYKPHPGMAHTGHYGGYYGHYMPTPMVMPQYHPGMGFPPPGNGYFPPYGMMPTIMNPYCSSQQQQQQQPNEQMNQFGHPGNLQNTQQQQQRSDNEPAPQQQQQPTKSYPRARKSRQGSTGSSPSGPQGISGSKSFRPFAAVDEDSNINNAPEQTMTTTTTTTRTTVTQTTRDGGGVTRVIKVVPHNAKLASENAARIFQSIQEERKRYDSSKP
B7: the binding result in assay [6] is “no binding”.

B8: phyD-Ct (amino acids 645-1165) fused to GAL4 activating domain (domain or fragment, UniProt P42497 645-1164)
chain: MVQQGMQEIGAVAREMVRLIETATVPIFAVDIDGCINGWNAKIAELTGLSVEDAMGKSLVRELIYKEYKETVDRLLSCALKGDEGKNVEVKLKTFGSELQGKAMFVVVNACSSKDYLNNIVGVCFVGQDVTGHKIVMDKFINIQGDYKAIIHSPNPLIPPIFAADENTCCLEWNTAMEKLTGWPRSEVIGKLLVREVFGSYCRLKGPDALTKFMIVLHNAIGGQDTDKFPFPFFDRKGEFIQALLTLNKRVSIDGKIIGAFCFLQIPSPELQQALEVQRRQESEYFSRRKELAYIFQVIKNPLSGLRFTNSLLEDMDLNEDQKQLLETSVSCEKQISKIVGDMDVKSIDDGSFLLERTEFFIGNVTNAVVSQVMLVVRERNLQLIRNIPTEVKSMAVYGDQIRLQQVLAEFLLSIVRYAPMEGSVELHLCPTLNQMADGFSAVRLEFRMACAGEGVPPEKVQDMFHSSRWTSPEGLGLSVCRKILKLMNGGVQYIREFERSYFLIVIELPVPLMMMMPSS
Consider B8, for which, in assay [1], the binding entry is recorded as “binds”.

B9: LUX (full length) fused to GAL4 activating domain (protein, UniProt Q9SNB4 1-323)
chain: MGEEVQMSDYDVSGDGDRVSEWEMGLPSDEDLASLSYSLIPPNLAMAFSITPERSRTIQDVNRASETTLSSLRGGSSGPNTSSSNNNVEEEDRVGSSSPGSDSKKQKTSNGDGDDGGGVDPDSAMAAEEGDSGTEDLSGKTLKRPRLVWTPQLHKRFVDVVAHLGIKNAVPKTIMQLMNVEGLTRENVASHLQKYRLYLKRMQGLTNEGPSASDKLFSSTPVPPQSFQDIGGGGGSSGNVGVPIPGAYGTQQMMQMPVYAHHMGMQGYHHQNHNHDPYHQNHRHHHGAGGNGAFESNPYMMQQNKFGSMASYPSVGGGSANEN
B9: in assay [1], the binding entry is “no binding”.

The values above are taken from publication PMC4755757.
